Reference: PMC10607609, “The Functionality of IbpA from Acholeplasma laidlawii Is Governed by Dynamic Rearrangement of Its Globular–Fibrillar Quaternary Structure” (International Journal of Molecular Sciences, 2023)
No constants are given. Whether binding was seen depends on the method and setting. Binding can be weak; no strength is given. Sequences can lack the tags named with a protein.

Target: T1, AlIbpAΔN12_(His6), AlIbpA lacking 12 N-terminal amino acid residues (Acholeplasma laidlawii) (UniProt A9NFB2)
T1 sequence: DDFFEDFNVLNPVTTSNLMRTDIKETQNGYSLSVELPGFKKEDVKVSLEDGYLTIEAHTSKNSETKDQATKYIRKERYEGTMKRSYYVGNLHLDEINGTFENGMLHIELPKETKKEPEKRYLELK
Assay: cross-linking; sHSP (1.0 mg/mL) mixed with human insulin (1.0 mg/mL) for 10 min at 25 °C or 56 °C, then 0.05% glutaraldehyde for 20 min, stopped with 100 mM Tris pH 7.4; the product was used as analyte in BLI; both purified

binding: binds
Substance: human insulin (ligand)
